According to PubChem BioAssay AID504847 (National Center for Advancing Translational Sciences (NCATS), 2011):
Screen size: about 400,000 compounds; about 3,700 (0.93%) were called active. Listed are the inconclusive results; actives and inactives stand elsewhere. The call rests on the fitted dose curve; in most records, active means well fitted inhibition curve with a large enough effect; inconclusive means small, poorly fitted or top-dose-only effect, or another doubt; inactive means no such curve, though single readings can be large or run the other way.

The chains behind the UniProt entries cited, without tags or fusion partners.
UniProt P11473, whole entry: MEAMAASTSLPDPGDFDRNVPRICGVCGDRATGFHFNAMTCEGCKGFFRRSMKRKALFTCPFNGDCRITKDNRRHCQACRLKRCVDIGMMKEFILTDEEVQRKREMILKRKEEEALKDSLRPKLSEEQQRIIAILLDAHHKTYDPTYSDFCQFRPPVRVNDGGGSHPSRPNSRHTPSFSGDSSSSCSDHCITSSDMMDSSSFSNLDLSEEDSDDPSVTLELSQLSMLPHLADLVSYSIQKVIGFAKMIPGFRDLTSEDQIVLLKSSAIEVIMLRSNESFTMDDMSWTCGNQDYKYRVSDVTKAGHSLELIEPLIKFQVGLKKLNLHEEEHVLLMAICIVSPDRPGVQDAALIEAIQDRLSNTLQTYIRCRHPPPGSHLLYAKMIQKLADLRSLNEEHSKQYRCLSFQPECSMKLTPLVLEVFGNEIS

Each compound was assayed against Vitamin D3 receptor (Homo sapiens) (UniProt P11473) (assay: Inhibitors of the vitamin D receptor (VDR): qHTS). Settings: VDR-SRC2-3 peptide fluorescence polarization, 2 h.
Potency means the concentration at half of the fitted maximal effect.

SMILES | Potency
CC(C)(C)OC(=O)N1CCC(Nc2ccccc2)CC1 | inconclusive: 100 µM
COc1ccc(C(=O)NCC2(N3CCCCC3)CCCCC2)cc1 | inconclusive: 79.4 µM
